Data as given in patent US20120282637A1.
Results are given in words; binding and its absence hold for the method and conditions named. Binding can be weak; no strength is given.

These binders were tested against Cyno sRAGE (Cyno) (assay: Human/Cyno/rat cross reactivity, Table 1).

Row | binding | Binder
1 | binds | 56 RAGE-1 (antibody, V domains shown) VH: QVQLQQSGPELVKPGASVRISCKASGYTFTSYFIHWVKQRPGQGLEWIGWIYPGNVNTKYNEKFKDKATLTADKSSSTAYMQLSNLTSEDSAVYFCVRGQLGDYWGQGITLTVSS VL: DIVMTQSQKFMSTSVGDRVSVTCKASQNVGINVAWYQQKPGQSPKALIYSASYRYSGVPDRFTGSGSGTDFTLIISNVQSEDLAEYFCQQYNNYPRTFGGGTKLEIK
2 | binds | 253 RAGE-1 (antibody, V domains shown) VH: QVQLQQSGPELVKPGASVRISCKASGYTFTDYYIHWVKQRPGQGLEWIGWIYPGNVITKYNEKFKGKATLTADKSSSTAYMQLSSLTSEDSAVYFCARYDYDYAMDYWGQGTSVTVSS VL: DIVMSQSPSSLAVSVGEKVTMSCKSSQTLLYSSNQKNYLAWYQQKPGQSLKLLIYWASTRESGVPDRFAGSGSGTDFTLTISSVKAEDLAVYYCQQYFGYPYTFGGGTKLEIK

The binders below were run against Cyno sRAGE (Cyno) (assay: Human/Cyno/rat/mouse cross reactivity, Table 1).

Row | binding | Binder
3 | binds | 56 RAGE-1 (antibody, V domains shown) VH: QVQLQQSGPELVKPGASVRISCKASGYTFTSYFIHWVKQRPGQGLEWIGWIYPGNVNTKYNEKFKDKATLTADKSSSTAYMQLSNLTSEDSAVYFCVRGQLGDYWGQGITLTVSS VL: DIVMTQSQKFMSTSVGDRVSVTCKASQNVGINVAWYQQKPGQSPKALIYSASYRYSGVPDRFTGSGSGTDFTLIISNVQSEDLAEYFCQQYNNYPRTFGGGTKLEIK

The binders below were run against Cyno sRAGE (Cyno) (assay: ELISA, O.D. 450 nm, one bar per species; plate format and antibody concentration not given).

Row | Binder | binding
4 | 250 RAGE-1 (antibody, V domains shown) VH: EVKLEESGGGLVQPGGSMKLSCVASGFTFSNYWMNWVRQSPEKGLEWVAEIRLKSNNYATHYAESVKGRFTISRDDSKSSVYLQMNNLRAEDTGIYFCIRDYGNYAMDYWGQGTSVTVSS VL: DIVMTQSQKFMSTSVGDRVSVTCKASQNVGTNVAWYQQKPGQSPKALIYSASYRYSGVPDRFTGSGSGTDFTLTISNVQSEDLAEFFCQQYNSYPLTFGAGTKLELK | binds
5 | 499 RAGE-1 (antibody, V domains shown) VH: EVQLQQSGTVLARPGASVKMSCKASGYTFTSYWMHWVKQRPGQGLEWIGAIYPGDSDTYYNQKFKGKAKLTAVTSTSTAYMELSSLTNEDSAVYYCTRNWDYWGQGTTLTVSS VL: DIVMTQSHKFMSTSVGDRVSITCKASQDVSTAVAWYQQKPGQSPKLLIYSASYRYTGVPDRFTGSGSGTDFTFTISSVQAEDLAVYYCQQHYNTPRTFGGGTKLEIK | binds
6 | 253 RAGE-1 (antibody, V domains shown) VH: QVQLQQSGPELVKPGASVRISCKASGYTFTDYYIHWVKQRPGQGLEWIGWIYPGNVITKYNEKFKGKATLTADKSSSTAYMQLSSLTSEDSAVYFCARYDYDYAMDYWGQGTSVTVSS VL: DIVMSQSPSSLAVSVGEKVTMSCKSSQTLLYSSNQKNYLAWYQQKPGQSLKLLIYWASTRESGVPDRFAGSGSGTDFTLTISSVKAEDLAVYYCQQYFGYPYTFGGGTKLEIK | binds
7 | 130 RAGE-1 (antibody, V domains shown) VH: EVQLVESGGGLVKPGGSLKLSCAASGFTFSSYVMSWVRQSPEKRLEWVAEISSGGSYTYYPDTVTGRFTISRDNDKNTLYLEMSSLRSEDTAMYYCARPPYGKDAMDYWGQGTSVTVSS VL: QIVLTQSPAIMSASPGEKVTMTCSASSSVSYMHWYQQKSGTSPKRWISDTSKLASGVPARFSGSGSGTSYSLTISSMEAEDAATYYCQQWSSNPPTFGGGTKLEIK | binds
8 | 347 RAGE-1 (antibody, V domains shown) VH: QVQLQQSGAELAKPGASVKMSCRASGYTFTDYWMHWVKQRPGQGLEWIGFINPSTVYTEYIPKFKDKATLTADKSSSTAYMQLSSLTSEDSAVYYCARSDGGWYFDVWGAGTTVTVSS VL: DIQMTQSSSYLSVSLGGRVTITCKASDRINYWLAWYQQKPGNAPRLLISGATTLETGVPSRFSGSGSGKDYTLSITSLQTEDVATYYCQQYWSTPYTFGGGTKLELK | binds
9 | 140 RAGE-1 (antibody, V domains shown) VH: QVQLQQPGAELVKPGASVRLSCKASGYTFTSYWMHWVKQRPGQGLEWIGEINPSNGRTNYNEKFKSKATLTVDKSSSTAYMQLSSLTSEDSAVYYCARDGLGYRPIAMDYWGQGTSVTVSS VL: QIVLTQSPAIMSASPGEKVTISCSASSSVSYMYWYQQKPGSSPKPWIYRTSNLASGVPARFSGSGSGTSYSLTISSMEAEDAATYYCQQYHSYPPMYTFGGGTKLEIK | binds
10 | 283 RAGE-1 (antibody, V domains shown) VH: QVQLQQSGAELVRPGTSVKVSCKASGYAFTNYLIEWVKQRPGQGLEWIGVINPGSGGTNYSERFKGKATLTADKSSSTAYMQLSSLTSDDSAVYFCASYRYDGGMDYWGQGTSVTVSS VL: QAVVTQESALTTSPGETVTLTCRSSTGAVTTSNYANWVQEKPDHLFTGLIRGTNNRAPGVPARFSGSLIGDKAALTITGAQTEDEAIYFCALWYSNHWVFGGGTKLTVL | binds
11 | 501-4 RAGE-1 (antibody, V domains shown) VH: EVMLVDSGGGLVKPGGSLKLSCAASGFTFRSYAMSWVRQTPEKRLEWVATISSGGSYTYYPDSVRGRFTTSRDNGKNTLYLQMSSLRSEDTAMYYCARHGGNYSAWFTYWGQGTLVTVSA VL: QAVVTQESALTTSPGETVTLTCRSSTGAVTTSNYANWVQEKPDHLFTGLIGGTNNRAPDVPARFSGSLIGDKAALTITGAQTEDEAIYFCALWYSNHWVFGGGTKLTVL | binds
12 | 316 RAGE-1 (antibody, V domains shown) VH: QVQLQQSGPELVRPGASVKMSCKASGYTFTSYWMHWVKQRPGQGLEWIGMIDPSNSETRLNQKFKDKATLNVDKSSNTAYMQLSSLTSEDSAVYYCARNFYGSSLRVWGAGTTVTVSS VL: DIVLTQSPASLAVSLGQRATISCRASKSVSISGYSYLHWNQQKPGQSPKLLIYLASNLESGVPARFSGSGSGTDFTLNIHPVEEEDAATYYCQHSRELPYTFGGGTKLEIK | binds
13 | 158 RAGE-1 (antibody, V domains shown) VH: QIQLVQSGPELKKPGETVKISCKASGYTFTDYSMHWVKQAPGKGLKWMGWINTETGEPTYADDFKGRFAFSLETSASTAYLLINNLKTEDTATYFCARDYLYYYAMDYWGQGTSVTVSS VL: DVVLTQTPLSLPVNIGDQASISCKSTKSLLNSDGFTYLDWYLQKPGQSPQLLIYLVSNRFSGVPDRFSGSGSGTDFTLKISRVEAEDLGVYYCFQSNYLPLTFGGGTKVEIK | binds

Next, values leading:

Row | binding | Binder
14 | binds | 173 RAGE-1 (antibody, V domains shown) VH: EVKLEESGGGLVQPGGSMKLSCVASGFTFSNYWMNWVRQSPEKGLEWVAEIRLKSNNYATHYAESVKGRFTISRDDSKSSVYLQMNDLRAEDPGIYYCIRDYGNYAMDHWGQGTSVTVSS VL: DIVMTQSQKFMSTSVGDRVSVTCKASQNVGTNVAWYQQKPGQSPKALIYSASYRYSGVPDRFTGSGSGTDFTLTISNVQSEDLAEYFCQQYNSYPLTFGAGTKLELK
15 | binds | 56 RAGE-1 (antibody, V domains shown) VH: QVQLQQSGPELVKPGASVRISCKASGYTFTSYFIHWVKQRPGQGLEWIGWIYPGNVNTKYNEKFKDKATLTADKSSSTAYMQLSNLTSEDSAVYFCVRGQLGDYWGQGITLTVSS VL: DIVMTQSQKFMSTSVGDRVSVTCKASQNVGINVAWYQQKPGQSPKALIYSASYRYSGVPDRFTGSGSGTDFTLIISNVQSEDLAEYFCQQYNNYPRTFGGGTKLEIK
16 | binds | 210 RAGE-1 (antibody, V domains shown) VH: EIQLQQTGPELVKPGASVKISCKASGYSFTDYIMVWVKQSHGKSLEWIGTINPYYGSTSYNLKFKGKATLTVDKSSSTANMQLNSLTSEDSAVYYCARLRLYAMDYWGQGTSVTVSS VL: QAVVTQESALTTSPGETVTLTCRSSTGAVTTSNYANWVQEKPDHLFTGLIGGTNNRAPGVPARFSGSLIGDKAALTITGAQTEDEAIYFCALWYSNHFWVFGGGTKLTVL
17 | binds | 152 RAGE-1 (antibody, V domains shown) VH: DVQLQESGPDLVKPSQSLSLTCTVTGYSITSGYSWHWIRQFPGNKLEWMGYIHYSGSTNYNPSLKSRISITRDTSKNQFFLQLNSVTTEDTATYYCARGGDFAYWGQGTLVTVSA VL: DIVLTQSPASLAVSLGQRATISCRASKSVGTSDSSYMHWYQQKPGQPPKLLIYLASNLESGVPARFSGSGSGTDFTLNIHPVEEEDAATYYCQHSRELYTFGGGTKLEIK
18 | binds | 259 RAGE-1 (antibody, V domains shown) VH: QVQLQQSGAELVRPGTSVKVSCKASGYAFTNYLIDWVNQRPGQGLEWIGVINPGSGGTNYNEKFTGKATLTADKSSSTAYMQLSSLTSDDSAVYFCARRRVDTMDYWGQGTSVTVSS VL: QAVVTQESALTTSPGETVTLTCRSSTGAVTTSNYANWVQEKPDHLFTGLIGGTNNRAPGVPARFSGSLIGDKAALTITGAQTEDEAIYFCALWYSNHWVFGGGTKLTVL
19 | binds | 529 RAGE-1 (antibody, V domains shown) VH: EIQLQQTGPELVKPGASVKISCKASGYSFTDYIMLWVKQSHGKSLEWIGNINPYYGSTFYNLKFKGKATLTVDKSSSTAYMQLNSLTSEDSAVYYCARSDYWYFDVWGAGTTVTVSS VL: QAVVTQESALTTSPGETVTLTCRSSTGAVTTSNYANWVQEKPDHLFTGLIGGTNNRSPGVPARFSGSLIGDKAALTITGAQTEDEAIYFCALWYSNHLVFGGGTKLTVL
20 | binds | 95 RAGE-1 (antibody, V domains shown) VH: QVQLQQPGAELVKPGASVKLSCKASGYTFTSYWMHWVKQRPGQGLEWIGESNPSNGRTNYNEKFKNKATLTVDKSSSTAYMQLSSLTSEDSAVYYCARAPYYGFDYWGQGTTLTVSS VL: QAVVTQESALTTSPGETVTLTCRSSTGAVTTSNYANWVQEKPDHLFTGLTGGTNNRAPGVPARFSGSLIGDKAALTITGAQTEDEAIYFCALWYSNHWVFGGGTKLTVL
21 | binds | 184 RAGE-1 (antibody, V domains shown) VH: QVQLQQSGAELVRPGTSVKVSCKASGYAFTNYLIEWVKQRPGQGLEWIGMINPGSGGTNYNEKFKGKATLTADKSSSTAYMQLSSLTSDDSAVYFCARGRGGHYRYFDVWGAGTTVTVSS VL: DIVLTQSPASLAVSLGQRATISCRASKSVSTSGYSYMHWYQQKPGQPPKLLIYLASHLESGVPARFSGSGSGTDFSLNIHPVEEEDAATYYCQHSRELPWTFGGGTKLEIK
22 | binds | 240 RAGE-1 (antibody, V domains shown) VH: QIQLVQSGPELKKPGETVKISCKASGYTFTDYSMHWVKQAPGKGLKWMGWINTETGEPTYADDFKGRFAFSLETSASTAYLQINNLKNEDTATYFCARDYLYYYAMDYWGQGTSVTVSS VL: DVVLTQTPLSLPVSIGDQASISCKSTKSLLNSDGFTYLDWYLQKPGQSPQLLIYLVSNRFSGVPDSFSGSGSGTDFTLKISRVEAEDLGVYYCFQSNYFPLTFGGGTTLEIK
23 | binds | 326 RAGE-1 (antibody, V domains shown) VH: EVKLVESGGGLVKPGGSLKLSCAASGFAFSSYDMSWVRQTPEKRLEWVATISSGGSYTSYPDSVQGRFTISRDNARNTLYLQMSSLRSEDTALYYCASSQLPPYAMDYWGQGTSVTVSS VL: DIVMTQSQKFMSTSVGDRVSITCKASQNVGTAVAWYQQKPGQSPKLLIYSASNRYTGVPDRFTGSGSGTDFTLTISNMQSEDLADYFCQQYSSYPLLTFGAGTKLELK
24 | binds | 183 RAGE-1 (antibody, V domains shown) VH: EVQLQQSGTVLARPGASVKMSCKASGYSFTSYWMHWVKQRPGQGLEWIGAIFPGNSDTTYNQKFKGKAKLTAVTSASTAYMELSSLTNEDSAVYYCTGLRRGFPYWGQGTLVTVSV VL: NIVMTQSPKSMSMSVGERVTLSCKASENVGTYVSWYQQKPEQSPKLLIYGASNRYTGVPDRFTGSGSATDFTLTISSVQAEDLADYHCGQSYSYPYTFGGGTKLEIK
